The text below walks through data of article PMC4482583, “The Dimerization State of the Mammalian High Mobility Group Protein AT-Hook 2 (HMGA2)” (PLoS ONE, 2015).

These are yes or no findings as the source states them, for the method shown. Some results given as binding are weak or reduced against the parent protein; the word gives no strength.

Assay [1] has as its target mammalian high mobility group protein AT-hook 2 (HMGA2) (mouse) (UniProt P52927). The assay can be described thus: cross-linking; disuccinimidyl suberate (DSS) and dimethyl suberimidate (DMS) as cross-linking reagents; data not shown; both purified.
The next assay deals with T1, HMGA2Δ95–108 (mouse, UniProt P52927 1-94).
T1 construct: also called mutant that lacks the negatively charged C-terminus; source: made by PCR-based site directed mutagenesis, purified as described previously [26]
T1 sequence (looked up): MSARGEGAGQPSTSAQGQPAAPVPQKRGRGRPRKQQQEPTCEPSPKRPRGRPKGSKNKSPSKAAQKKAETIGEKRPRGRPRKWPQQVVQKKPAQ
Put plainly: cross-linking; EDC (2 mM, zero-length) in MES buffer (10 mM MES, pH 5.5, 50 mM NaCl), 2 hours at 24°C; 29-116 μM protein; 15% SDS-PAGE, Coomassie; both purified.

B1: mammalian high mobility group protein AT-hook 2 (HMGA2) (natural protein, mouse, UniProt P52927 1-108, looked up)
chain: MSARGEGAGQPSTSAQGQPAAPVPQKRGRGRPRKQQQEPTCEPSPKRPRGRPKGSKNKSPSKAAQKKAETIGEKRPRGRPRKWPQQVVQKKPAQETEETSSQESAEED
notes: also called mouse HMGA2; recombinant HMGA2; source: recombinant, purified as described previously [26]
As for B1, the binding result in assay [1] is listed as “binds”.

B2: HMGA2Δ95–108 (domain or fragment, UniProt P52927 1-94)
chain: T1 sequence (looked up)
On to B2, for which the binding result with HMGA2Δ95–108 is given as “no binding (tested: 40 μM)”.
